# Measured values published in the supplement of paper PMC10849652.
# Amino acid sequences for entries named in this document (tags omitted). A change or cut given only in a name is not applied to a line headed by its entry.
# UniProt Q8IZ21: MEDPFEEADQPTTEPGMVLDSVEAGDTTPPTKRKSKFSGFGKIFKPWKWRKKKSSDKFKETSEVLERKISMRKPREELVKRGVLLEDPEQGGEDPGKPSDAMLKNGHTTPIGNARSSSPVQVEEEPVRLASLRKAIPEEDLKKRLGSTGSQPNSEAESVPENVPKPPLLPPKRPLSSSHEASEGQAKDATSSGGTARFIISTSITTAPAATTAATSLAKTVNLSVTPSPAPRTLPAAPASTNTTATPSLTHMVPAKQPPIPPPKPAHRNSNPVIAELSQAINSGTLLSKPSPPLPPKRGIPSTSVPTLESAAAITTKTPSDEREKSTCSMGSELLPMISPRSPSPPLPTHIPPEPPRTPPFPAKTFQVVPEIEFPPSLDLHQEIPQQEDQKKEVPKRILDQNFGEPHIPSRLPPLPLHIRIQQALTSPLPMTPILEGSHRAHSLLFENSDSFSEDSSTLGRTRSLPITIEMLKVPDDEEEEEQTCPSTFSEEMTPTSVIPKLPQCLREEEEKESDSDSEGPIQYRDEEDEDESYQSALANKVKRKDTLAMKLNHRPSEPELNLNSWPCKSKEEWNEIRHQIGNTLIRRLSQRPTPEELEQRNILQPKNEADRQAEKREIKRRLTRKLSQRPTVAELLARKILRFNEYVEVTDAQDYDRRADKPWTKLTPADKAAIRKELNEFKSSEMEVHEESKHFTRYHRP
# UniProt P00558: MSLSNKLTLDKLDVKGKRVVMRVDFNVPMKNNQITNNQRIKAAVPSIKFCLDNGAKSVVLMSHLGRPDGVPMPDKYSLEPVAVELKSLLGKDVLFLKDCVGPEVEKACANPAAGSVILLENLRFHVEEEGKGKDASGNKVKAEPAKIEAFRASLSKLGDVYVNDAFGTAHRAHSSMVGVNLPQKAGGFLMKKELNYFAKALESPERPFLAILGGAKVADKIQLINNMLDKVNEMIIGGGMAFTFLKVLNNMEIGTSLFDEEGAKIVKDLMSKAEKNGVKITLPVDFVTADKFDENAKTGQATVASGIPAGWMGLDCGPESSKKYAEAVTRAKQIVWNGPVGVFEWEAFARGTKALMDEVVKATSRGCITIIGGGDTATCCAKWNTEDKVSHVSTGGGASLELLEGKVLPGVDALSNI
# UniProt Q01813: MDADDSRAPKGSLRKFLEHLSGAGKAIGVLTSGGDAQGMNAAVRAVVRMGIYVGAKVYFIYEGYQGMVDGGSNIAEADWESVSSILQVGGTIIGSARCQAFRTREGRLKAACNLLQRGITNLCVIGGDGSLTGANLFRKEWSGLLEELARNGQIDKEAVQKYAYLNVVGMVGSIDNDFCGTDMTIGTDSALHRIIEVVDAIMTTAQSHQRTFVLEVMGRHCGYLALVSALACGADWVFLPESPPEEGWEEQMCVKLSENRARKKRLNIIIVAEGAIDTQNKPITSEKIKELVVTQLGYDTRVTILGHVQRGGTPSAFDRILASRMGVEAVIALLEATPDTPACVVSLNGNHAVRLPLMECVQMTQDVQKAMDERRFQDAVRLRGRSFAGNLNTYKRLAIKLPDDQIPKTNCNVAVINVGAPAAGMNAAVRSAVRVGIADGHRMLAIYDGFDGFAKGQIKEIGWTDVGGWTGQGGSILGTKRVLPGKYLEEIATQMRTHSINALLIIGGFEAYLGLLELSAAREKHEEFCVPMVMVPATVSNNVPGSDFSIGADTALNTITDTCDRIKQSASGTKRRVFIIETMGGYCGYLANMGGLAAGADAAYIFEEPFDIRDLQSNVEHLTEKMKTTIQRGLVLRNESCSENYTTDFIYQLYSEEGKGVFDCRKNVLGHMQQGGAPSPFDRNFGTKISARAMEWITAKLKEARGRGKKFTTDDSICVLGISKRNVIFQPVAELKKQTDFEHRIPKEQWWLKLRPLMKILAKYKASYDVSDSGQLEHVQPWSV
# PIGBOS1, A0A0B4J2F0, UniProt A0A0B4J2F0, whole entry, looked up: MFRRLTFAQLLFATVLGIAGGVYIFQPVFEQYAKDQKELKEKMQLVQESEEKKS
# UniProt Q32NB8: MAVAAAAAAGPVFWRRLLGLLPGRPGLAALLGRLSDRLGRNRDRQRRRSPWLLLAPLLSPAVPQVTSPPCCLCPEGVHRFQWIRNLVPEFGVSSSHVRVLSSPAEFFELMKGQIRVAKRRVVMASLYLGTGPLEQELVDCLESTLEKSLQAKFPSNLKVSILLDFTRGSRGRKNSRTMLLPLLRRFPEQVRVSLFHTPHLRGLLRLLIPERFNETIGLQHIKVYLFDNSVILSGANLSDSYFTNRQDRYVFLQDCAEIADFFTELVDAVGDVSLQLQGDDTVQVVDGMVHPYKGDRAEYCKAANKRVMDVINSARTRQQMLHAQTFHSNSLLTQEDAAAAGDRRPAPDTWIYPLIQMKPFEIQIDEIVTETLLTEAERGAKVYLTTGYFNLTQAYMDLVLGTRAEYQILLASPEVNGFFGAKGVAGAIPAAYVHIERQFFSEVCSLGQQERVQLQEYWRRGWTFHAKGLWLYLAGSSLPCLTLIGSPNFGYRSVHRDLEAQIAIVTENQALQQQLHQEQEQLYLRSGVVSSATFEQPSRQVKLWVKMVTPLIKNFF
# UniProt Q96S52: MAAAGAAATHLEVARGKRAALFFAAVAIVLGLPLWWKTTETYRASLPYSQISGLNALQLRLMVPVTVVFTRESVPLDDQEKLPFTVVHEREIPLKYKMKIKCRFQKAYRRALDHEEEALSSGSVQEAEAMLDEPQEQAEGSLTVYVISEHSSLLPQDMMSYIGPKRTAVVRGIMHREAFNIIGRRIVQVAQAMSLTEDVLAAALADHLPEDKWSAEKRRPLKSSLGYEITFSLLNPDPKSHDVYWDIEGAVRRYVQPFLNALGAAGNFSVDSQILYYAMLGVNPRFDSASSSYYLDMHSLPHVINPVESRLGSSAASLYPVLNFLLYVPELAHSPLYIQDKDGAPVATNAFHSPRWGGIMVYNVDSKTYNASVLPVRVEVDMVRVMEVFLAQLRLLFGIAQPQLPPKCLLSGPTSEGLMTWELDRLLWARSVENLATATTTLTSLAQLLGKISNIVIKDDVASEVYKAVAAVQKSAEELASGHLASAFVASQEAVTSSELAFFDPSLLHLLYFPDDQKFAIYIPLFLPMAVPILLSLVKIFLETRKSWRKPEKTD
# UniProt O15173: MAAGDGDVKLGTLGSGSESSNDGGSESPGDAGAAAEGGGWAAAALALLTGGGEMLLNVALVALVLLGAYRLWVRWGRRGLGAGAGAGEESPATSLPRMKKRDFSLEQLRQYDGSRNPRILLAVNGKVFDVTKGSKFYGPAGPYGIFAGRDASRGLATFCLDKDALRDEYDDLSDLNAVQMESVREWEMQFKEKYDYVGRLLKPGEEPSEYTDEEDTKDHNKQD
# UniProt Q8WUB8: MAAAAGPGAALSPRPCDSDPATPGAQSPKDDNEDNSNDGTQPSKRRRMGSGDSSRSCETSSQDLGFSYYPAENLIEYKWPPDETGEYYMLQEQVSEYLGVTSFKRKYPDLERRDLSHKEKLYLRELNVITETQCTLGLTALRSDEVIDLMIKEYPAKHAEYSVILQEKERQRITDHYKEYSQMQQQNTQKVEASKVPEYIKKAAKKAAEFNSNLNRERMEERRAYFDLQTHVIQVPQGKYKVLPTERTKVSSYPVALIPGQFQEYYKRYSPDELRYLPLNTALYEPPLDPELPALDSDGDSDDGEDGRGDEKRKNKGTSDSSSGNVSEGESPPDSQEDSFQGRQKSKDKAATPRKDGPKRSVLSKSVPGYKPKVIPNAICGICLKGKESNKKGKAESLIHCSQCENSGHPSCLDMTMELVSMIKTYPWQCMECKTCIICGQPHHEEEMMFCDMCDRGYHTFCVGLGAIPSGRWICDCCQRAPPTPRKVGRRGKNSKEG
# UniProt Q8IWS0: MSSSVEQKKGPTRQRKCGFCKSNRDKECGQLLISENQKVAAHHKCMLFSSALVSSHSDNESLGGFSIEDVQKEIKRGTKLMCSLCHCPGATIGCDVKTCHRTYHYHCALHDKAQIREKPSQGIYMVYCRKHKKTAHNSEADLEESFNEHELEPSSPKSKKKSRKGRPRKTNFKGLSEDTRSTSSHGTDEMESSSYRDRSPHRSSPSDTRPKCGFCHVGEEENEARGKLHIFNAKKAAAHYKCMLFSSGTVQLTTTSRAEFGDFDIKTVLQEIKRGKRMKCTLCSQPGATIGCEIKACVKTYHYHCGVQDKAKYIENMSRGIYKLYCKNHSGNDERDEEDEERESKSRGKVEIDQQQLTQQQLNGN
# UniProt O95427: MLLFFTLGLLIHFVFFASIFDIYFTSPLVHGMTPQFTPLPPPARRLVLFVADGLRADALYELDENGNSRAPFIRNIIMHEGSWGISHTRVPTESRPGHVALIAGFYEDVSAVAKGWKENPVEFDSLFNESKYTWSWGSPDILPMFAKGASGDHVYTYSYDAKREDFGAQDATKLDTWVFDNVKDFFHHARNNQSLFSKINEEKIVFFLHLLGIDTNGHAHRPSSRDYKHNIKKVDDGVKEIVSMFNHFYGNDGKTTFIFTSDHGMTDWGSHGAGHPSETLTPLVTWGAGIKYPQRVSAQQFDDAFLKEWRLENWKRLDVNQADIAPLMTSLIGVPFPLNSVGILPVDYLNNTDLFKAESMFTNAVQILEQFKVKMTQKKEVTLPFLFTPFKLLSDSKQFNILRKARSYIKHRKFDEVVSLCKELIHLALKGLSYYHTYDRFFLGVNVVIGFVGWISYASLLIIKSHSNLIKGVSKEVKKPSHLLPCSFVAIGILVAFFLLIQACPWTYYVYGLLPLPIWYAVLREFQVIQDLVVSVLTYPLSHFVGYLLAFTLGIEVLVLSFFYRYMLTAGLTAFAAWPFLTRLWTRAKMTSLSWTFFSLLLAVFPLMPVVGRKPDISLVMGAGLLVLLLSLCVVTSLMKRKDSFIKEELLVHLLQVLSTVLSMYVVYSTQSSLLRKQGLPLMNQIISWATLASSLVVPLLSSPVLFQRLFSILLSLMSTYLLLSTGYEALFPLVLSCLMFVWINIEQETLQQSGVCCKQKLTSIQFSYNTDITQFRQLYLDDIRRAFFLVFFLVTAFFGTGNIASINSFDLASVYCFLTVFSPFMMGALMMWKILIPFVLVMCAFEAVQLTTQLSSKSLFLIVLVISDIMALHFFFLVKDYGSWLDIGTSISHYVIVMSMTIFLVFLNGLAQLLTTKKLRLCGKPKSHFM
# UniProt Q99623, whole entry, looked up: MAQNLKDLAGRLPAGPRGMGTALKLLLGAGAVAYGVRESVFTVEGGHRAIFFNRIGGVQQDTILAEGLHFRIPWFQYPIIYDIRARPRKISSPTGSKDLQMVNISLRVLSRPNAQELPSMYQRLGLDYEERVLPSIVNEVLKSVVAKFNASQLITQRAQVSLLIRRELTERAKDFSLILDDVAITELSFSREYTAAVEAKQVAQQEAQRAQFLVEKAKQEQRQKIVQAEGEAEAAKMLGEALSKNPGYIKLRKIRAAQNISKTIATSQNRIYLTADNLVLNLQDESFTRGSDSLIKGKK
# UniProt P48736: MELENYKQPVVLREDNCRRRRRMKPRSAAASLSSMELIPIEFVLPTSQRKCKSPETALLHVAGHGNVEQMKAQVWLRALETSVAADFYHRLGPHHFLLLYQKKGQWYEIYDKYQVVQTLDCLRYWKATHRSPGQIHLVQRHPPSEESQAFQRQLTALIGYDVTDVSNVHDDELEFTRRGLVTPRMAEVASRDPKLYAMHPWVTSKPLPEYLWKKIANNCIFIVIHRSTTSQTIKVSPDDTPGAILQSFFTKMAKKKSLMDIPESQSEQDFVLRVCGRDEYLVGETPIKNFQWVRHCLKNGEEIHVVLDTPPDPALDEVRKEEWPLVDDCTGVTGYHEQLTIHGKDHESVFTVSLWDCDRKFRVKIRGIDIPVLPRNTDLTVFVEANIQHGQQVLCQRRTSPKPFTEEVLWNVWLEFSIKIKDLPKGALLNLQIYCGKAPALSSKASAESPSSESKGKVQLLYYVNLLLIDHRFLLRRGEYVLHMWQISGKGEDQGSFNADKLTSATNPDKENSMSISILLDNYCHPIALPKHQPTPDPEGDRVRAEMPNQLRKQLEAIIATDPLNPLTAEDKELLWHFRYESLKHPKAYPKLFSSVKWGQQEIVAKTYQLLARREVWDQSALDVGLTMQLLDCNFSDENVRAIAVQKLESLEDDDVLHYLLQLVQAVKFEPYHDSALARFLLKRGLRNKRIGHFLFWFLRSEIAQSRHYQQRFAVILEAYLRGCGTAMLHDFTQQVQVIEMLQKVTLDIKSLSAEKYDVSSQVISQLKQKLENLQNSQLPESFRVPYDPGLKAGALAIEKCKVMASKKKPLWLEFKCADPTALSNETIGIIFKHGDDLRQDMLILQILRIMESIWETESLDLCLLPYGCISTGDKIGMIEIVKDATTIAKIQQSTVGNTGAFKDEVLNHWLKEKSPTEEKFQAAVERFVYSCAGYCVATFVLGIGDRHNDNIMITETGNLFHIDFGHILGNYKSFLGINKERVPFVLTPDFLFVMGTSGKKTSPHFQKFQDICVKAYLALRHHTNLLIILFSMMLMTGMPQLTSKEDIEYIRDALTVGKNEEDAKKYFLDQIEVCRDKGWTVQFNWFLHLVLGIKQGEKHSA
# The other results are listed elsewhere or left out.
# Columns and labels:
# Assay in all cases: log2 fold change, soluble protein after heating vs DMSO (PISA); higher = thermal stabilisation; K562 cells, 10 uM, 30 min; active = over 0.2 and 3.5 SD of the protein, either way, in both replicates (recomputed)
# [1] = compound: NC(=O)Nc1cc(-c2cccc(F)c2)sc1C(=O)N[C@H]1CCCNC1
# Outline: (§1)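 K562 cells at 2×10^6 cells/mL were treated with 10 μM compound for 30 min. Aliquots were heated for 3 min across 48°C-58°C, pooled, and extracted in PBS with 0.5% NP-40 at 4°C; soluble protein was the supernatant after 21,000xg for 90 min. Soluble protein was quantified by TMTpro 16plex LC-MS/MS with channel sums equalised, and reported as log2 fold change in thermal stability against DMSO controls, with values from duplicates.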
# [2] = compound: NC(=O)c1cnc(N[C@@H]2CCCC[C@@H]2N)nc1Nc1cccc(-n2nccn2)c1
# Outline: as §1
# [3] = compound: NC1(c2ccc(-c3nc4ccn5c(=O)[nH]nc5c4cc3-c3ccccc3)cc2)CCC1
# Outline: as §1
# [4] = compound: NCC(=O)Nc1ccc(-n2nc(C(F)(F)F)cc2-c2ccc3c(ccc4ccccc43)c2)cc1
# Outline: as §1
# entinostat = compound: Nc1ccccc1NC(=O)c1ccc(CNC(=O)OCc2cccnc2)cc1 [entinostat]
# Outline: as §1
# vorinostat = compound: O=C(CCCCCCC(=O)Nc1ccccc1)NO [vorinostat]
# Outline: as §1
# citarinostat = compound: O=C(CCCCCCNC(=O)c1cnc(N(c2ccccc2)c2ccccc2Cl)nc1)NO [citarinostat]
# Outline: as §1
# silmitasertib = compound: O=C(O)c1ccc2c(c1)nc(Nc1cccc(Cl)c1)c1ccncc12 [silmitasertib]
# Outline: as §1
# [5] = compound: O=C1NC(=O)C(c2cnc3ccccn23)=C1c1cn2c3c(cc(F)cc13)CN(C(=O)N1CCCCC1)CC2
# Outline: as §1
# [6] = compound: c1cc(OCCN2CCCCC2)cc(-c2n[nH]c3ccc(-c4nnc[nH]4)cc23)c1
# Outline: as §1
Target,log2 fold change [1],log2 fold change [2],log2 fold change [3],log2 fold change [4],log2 fold change (entinostat),log2 fold change (vorinostat),log2 fold change (citarinostat),log2 fold change (silmitasertib),log2 fold change [5],log2 fold change [6]
PIP5K1A (UniProt Q99755),inactive: 0.079,inactive: 0.006,inactive: 0.06,inactive: -0.063,inactive: 0.082,inactive: 0.051,inactive: 0.057,inactive: -0.077,inactive: 0.182,inactive: -0.252
PHACTR4 isoform 2 (UniProt Q8IZ21),inactive: -0.056,inactive: 0,inactive: 0.057,inactive: -0.007,inactive: -0.031,inactive: -0.019,inactive: 0.024,inactive: -0.012,inactive: -0.027,inactive: -0.004
PICALM (UniProt Q13492),inactive: -0.021,inactive: -0.029,inactive: -0.066,inactive: -0.023,inactive: 0.004,inactive: -0.002,inactive: 0.026,inactive: -0.019,inactive: -0.081,inactive: -0.028
PIP4K2A (UniProt P48426),inactive: -0.026,inactive: 0.013,inactive: -0.086,inactive: 0.113,inactive: 0.026,inactive: -0.037,inactive: 0.004,inactive: 0.259,inactive: 0.057,inactive: -0.057
PFDN5 (UniProt Q99471),inactive: 0.082,inactive: 0.03,inactive: 0.032,inactive: 0.04,inactive: 0.086,inactive: 0.045,inactive: 0.06,inactive: -0.039,inactive: -0.101,inactive: 0
PGD (UniProt P52209),inactive: -0.012,inactive: 0.007,inactive: -0.069,inactive: -0.009,inactive: -0.01,inactive: 0.019,inactive: 0.011,inactive: -0.058,inactive: -0.026,inactive: -0.006
PFKM isoform 3 (UniProt P08237),inactive: 0,inactive: 0,inactive: -0.032,inactive: 0,inactive: -0.016,inactive: 0.011,inactive: 0.015,inactive: 0.014,inactive: -0.03,inactive: -0.007
PLCL1 (UniProt Q15111),inactive: 0.05,inactive: -0.035,inactive: -0.069,inactive: -0.01,inactive: 0.043,inactive: -0.012,inactive: 0.02,inactive: -0.475,active: -0.854,inactive: 0.05
PIK3CB (UniProt P42338),inactive: -0.057,inactive: -0.106,inactive: -0.008,inactive: -0.102,inactive: 0.014,inactive: 0.001,inactive: 0.003,inactive: -0.053,inactive: -0.039,inactive: -0.049
PHKA2 (UniProt P46019),inactive: 0.013,inactive: -0.112,inactive: -0.157,inactive: 0.005,inactive: 0.13,inactive: 0.04,inactive: -0.046,inactive: 0.001,inactive: -0.013,inactive: 0.065
PGK1 (UniProt P00558),inactive: -0.031,inactive: -0.029,inactive: -0.03,inactive: -0.028,inactive: -0.021,inactive: -0.016,inactive: 0.004,inactive: -0.049,inactive: -0.042,inactive: -0.005
PKM isoform 2 (UniProt P14618),inactive: 0.123,inactive: 0.175,inactive: -0.063,inactive: 0.116,inactive: 0.05,inactive: -0.195,inactive: -0.075,inactive: -0.052,inactive: 0.043,inactive: -0.093
PIH1D1 (UniProt Q9NWS0),inactive: -0.017,inactive: 0.018,inactive: -0.078,inactive: -0.025,inactive: 0.03,inactive: 0.074,inactive: 0.041,inactive: -0.025,inactive: 0.085,inactive: 0.005
PIKFYVE (UniProt Q9Y2I7),inactive: 0.029,inactive: -0.055,inactive: -0.256,inactive: -0.072,inactive: 0.09,inactive: 0.021,inactive: -0.047,inactive: 0.006,inactive: -0.069,inactive: -0.08
PFKP (UniProt Q01813),inactive: 0.004,inactive: 0.018,inactive: -0.013,inactive: -0.004,inactive: -0.024,inactive: 0.024,inactive: -0.031,inactive: -0.074,inactive: -0.054,inactive: -0.006
"PIGBOS1, A0A0B4J2F0",inactive: -0.059,inactive: -0.076,inactive: -0.01,inactive: 0.061,inactive: 0.066,inactive: -0.117,inactive: 0.024,inactive: -0.032,inactive: -0.025,inactive: 0.072
PHKG2 (UniProt P15735),active: 0.417,inactive: 0.088,inactive: -0.064,inactive: -0.035,inactive: -0.007,inactive: 0,inactive: 0.122,inactive: 0.052,inactive: 0.023,inactive: -0.045
PGS1 (UniProt Q32NB8),inactive: 0.081,inactive: -0.028,inactive: -0.122,inactive: 0.047,inactive: 0.117,inactive: -0.021,inactive: -0.051,inactive: -0.06,inactive: -0.021,inactive: -0.044
PI4KA (UniProt P42356),inactive: 0.094,inactive: 0.012,inactive: -0.06,inactive: 0.025,inactive: -0.016,inactive: 0.095,inactive: -0.013,inactive: 0.071,inactive: 0.124,inactive: -0.167
PIGS (UniProt Q96S52),inactive: -0.02,inactive: -0.024,inactive: -0.045,inactive: -0.025,inactive: 0.008,inactive: -0.02,inactive: 0.02,inactive: 0.002,inactive: -0.005,inactive: -0.023
PGRMC2 isoform 2 (UniProt O15173),inactive: 0.046,inactive: 0.062,inactive: 0.079,inactive: 0.073,inactive: 0.016,inactive: 0.008,inactive: 0.017,inactive: -0.024,inactive: -0.073,inactive: 0
PHKA1 (UniProt P46020),inactive: 0.03,inactive: 0.046,inactive: -0.202,,inactive: -0.005,inactive: 0.013,inactive: 0.128,inactive: 0.004,inactive: 0.027,inactive: -0.068
PHF10 (UniProt Q8WUB8),inactive: 0.025,inactive: -0.222,,inactive: 0.013,inactive: -0.002,inactive: 0.121,inactive: 0.032,,inactive: -0.093,inactive: -0.118
PHF6 (UniProt Q8IWS0),inactive: -0.005,inactive: 0.063,inactive: 0.307,inactive: 0.031,inactive: -0.061,inactive: 0.005,inactive: -0.027,inactive: 0.137,inactive: 0.076,inactive: -0.152
PFN3 (UniProt P60673),inactive: -0.021,inactive: -0.59,inactive: -0.856,inactive: 0.002,inactive: 0.065,inactive: 0.092,inactive: -0.282,inactive: -0.128,inactive: -0.281,inactive: -0.158
PIGN (UniProt O95427),inactive: 0.074,inactive: -0.053,inactive: -0.012,,inactive: 0.003,inactive: 0.004,inactive: 0.124,inactive: -0.014,inactive: -0.072,inactive: -0.322
PHB2 (UniProt Q99623),inactive: 0.037,inactive: -0.014,inactive: -0.014,inactive: 0.003,inactive: -0.004,inactive: -0.006,inactive: 0.012,inactive: -0.01,inactive: 0.029,inactive: -0.008
PIK3CG (UniProt P48736),inactive: 0.13,inactive: -0.819,,,inactive: -0.049,,inactive: 0.072,,inactive: 0.079,inactive: -0.202
PIN4 isoform 2 (UniProt Q9Y237),inactive: -0.089,inactive: 0.005,inactive: -0.026,inactive: -0.033,inactive: -0.014,inactive: -0.019,inactive: 0.035,inactive: 0.006,inactive: -0.063,inactive: -0.033
PHB (UniProt P35232),inactive: -0.026,inactive: -0.055,inactive: -0.005,inactive: -0.036,inactive: 0.049,inactive: -0.026,inactive: 0.022,inactive: 0.004,inactive: -0.052,inactive: -0.035

# Quoted from the entries so far (2 entries):
Target,log2 fold change [1],log2 fold change [2],log2 fold change [3],log2 fold change [4],log2 fold change (entinostat),log2 fold change (vorinostat),log2 fold change (citarinostat),log2 fold change (silmitasertib),log2 fold change [5],log2 fold change [6]
PICALM (UniProt Q13492),inactive: -0.021,inactive: -0.029,inactive: -0.066,inactive: -0.023,inactive: 0.004,inactive: -0.002,inactive: 0.026,inactive: -0.019,inactive: -0.081,inactive: -0.028
PIP4K2A (UniProt P48426),inactive: -0.026,inactive: 0.013,inactive: -0.086,inactive: 0.113,inactive: 0.026,inactive: -0.037,inactive: 0.004,inactive: 0.259,inactive: 0.057,inactive: -0.057
